Test results: PMC8611090
Results are given in words; binding and its absence hold for the method and conditions named. Binding seen in cells or lysates may run through a third protein. Some results given as binding are weak or reduced against the parent protein; the word gives no strength. For some of these results: Sequences can lack the tags named with a protein.

Sequences of proteins named here, by UniProt entry; tags and fusion partners are left off.
UniProt O88990: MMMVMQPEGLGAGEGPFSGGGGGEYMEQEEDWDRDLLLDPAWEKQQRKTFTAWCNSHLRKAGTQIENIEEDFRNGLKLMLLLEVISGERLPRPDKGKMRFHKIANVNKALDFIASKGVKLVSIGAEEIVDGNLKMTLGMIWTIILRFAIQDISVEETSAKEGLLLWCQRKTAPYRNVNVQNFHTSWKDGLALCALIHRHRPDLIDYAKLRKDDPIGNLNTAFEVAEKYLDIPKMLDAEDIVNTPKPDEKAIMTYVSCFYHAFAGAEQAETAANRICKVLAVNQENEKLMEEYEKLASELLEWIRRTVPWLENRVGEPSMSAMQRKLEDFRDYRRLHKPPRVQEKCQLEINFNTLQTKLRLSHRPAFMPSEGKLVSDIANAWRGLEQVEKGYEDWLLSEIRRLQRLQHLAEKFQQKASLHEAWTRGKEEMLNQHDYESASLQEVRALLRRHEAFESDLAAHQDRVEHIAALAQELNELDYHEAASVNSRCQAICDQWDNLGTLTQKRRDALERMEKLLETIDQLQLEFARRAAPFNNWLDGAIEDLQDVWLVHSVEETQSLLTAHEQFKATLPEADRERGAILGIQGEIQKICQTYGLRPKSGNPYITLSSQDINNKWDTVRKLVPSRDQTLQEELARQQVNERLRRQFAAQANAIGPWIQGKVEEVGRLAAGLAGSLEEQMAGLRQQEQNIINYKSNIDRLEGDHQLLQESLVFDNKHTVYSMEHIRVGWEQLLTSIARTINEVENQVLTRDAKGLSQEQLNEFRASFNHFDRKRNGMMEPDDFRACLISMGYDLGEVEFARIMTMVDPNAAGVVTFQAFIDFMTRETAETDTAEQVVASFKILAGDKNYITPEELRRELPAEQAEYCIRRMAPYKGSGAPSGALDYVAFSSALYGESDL
UniProt Q9CZW4: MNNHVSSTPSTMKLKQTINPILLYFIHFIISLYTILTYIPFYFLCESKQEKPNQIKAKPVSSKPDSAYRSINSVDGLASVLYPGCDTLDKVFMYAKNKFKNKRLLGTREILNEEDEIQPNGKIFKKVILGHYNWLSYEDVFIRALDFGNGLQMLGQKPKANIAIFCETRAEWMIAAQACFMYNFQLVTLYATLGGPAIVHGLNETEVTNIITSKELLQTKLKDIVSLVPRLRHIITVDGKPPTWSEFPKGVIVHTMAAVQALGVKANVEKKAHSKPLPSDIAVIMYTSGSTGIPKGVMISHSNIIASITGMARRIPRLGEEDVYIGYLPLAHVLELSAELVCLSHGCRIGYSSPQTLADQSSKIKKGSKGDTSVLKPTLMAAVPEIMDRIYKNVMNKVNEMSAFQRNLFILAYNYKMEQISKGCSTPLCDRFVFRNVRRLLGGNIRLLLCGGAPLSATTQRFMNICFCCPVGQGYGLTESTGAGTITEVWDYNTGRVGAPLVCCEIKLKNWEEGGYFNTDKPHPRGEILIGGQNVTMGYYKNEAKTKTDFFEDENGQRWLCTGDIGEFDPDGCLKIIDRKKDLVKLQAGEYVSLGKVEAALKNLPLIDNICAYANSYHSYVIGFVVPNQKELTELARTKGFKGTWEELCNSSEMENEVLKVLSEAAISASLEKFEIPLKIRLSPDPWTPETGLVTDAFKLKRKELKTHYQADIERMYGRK

B1: lysophosphatidylcholine acyltransferase 1 (LPCAT1) (protein, UniProt Q3TFD2 1-534)
chain: MRLRGRGPRAAPSSSSGAGDARRLAPPGRNPFVHELRLSALQKAQVAFMTLTLFPIRLLFAAFMMLLAWPFALLASLGPPDKEPEQPLALWRKVVDFLLKAIMRTMWFAGGFHRVAVKGRQALPTEAAILTLAPHSSYFDAIPVTMTMSSIVMKAESRDIPIWGTLIRYIRPVFVSRSDQDSRRKTVEEIKRRAQSNGKWPQIMIFPEGTCTNRTCLITFKPGAFIPGVPVQPVVLRYPNKLDTITWTWQGPGALKILWLTLCQFQNQVEIEFLPVYCPSEEEKRNPALYASNVRRVMAKALGVSVTDYTFEDCQLALAEGQLRLPADTCLLEFARLVRGLGLKPENLEKDLDKYSESARMKRGEKIRLPEFAAYLEVPVSDALEDMFSLFDESGGGEIDLREYVVALSVVCRPSQTLATIQLAFKMYGSPEDGSIDEANLSCILKTALGVSELTVTDLFQAIDQEDKGRITFDDFCGFAEMYPDYAEDYLYPDQTHFDSCAQTPPAPTPNGFCIDFSPENSDFGRKNSCKKAD
B2: LPCAT1 expressed from a tag vector (protein, UniProt Q3TFD2 1-534)
chain: B1 chain

What was measured:
[1] = target: ACTN3 expressed from a tag vector (UniProt O88990); assay: co-IP; co-immunoprecipitation using tag vectors in C2C12 cells (SI Appendix Fig. S3E, F)
[2] = target: ACTN3 (mouse (endogenous in C2C12)) (UniProt O88990); assay: co-IP; co-immunoprecipitation in C2C12 cells (Fig. 4A); Protein A/G beads

| Molecule | binding [1] | binding [2] |
| --- | --- | --- |
| ACSL3 expressed from a tag vector (from UniProt Q9CZW4 1-720) | binds |  |
| Acyl-CoA synthetase long chain family member 3 (ACSL3) (from UniProt Q9CZW4 1-720) |  | binds |
| B1 |  | binds |
| B2 | binds |  |
